From article PMC8605242
These are yes or no findings as the source states them, for the method shown. In cells and extracts the contact can be indirect. Binding calls can cover weak binding; strength is not graded here.

Protein sequences, listed by entry. Tags and fused reporters are not part of them. Lines headed by an entry give the natural chain unless they say otherwise; changes in a name come on top.
UniProt I3L1U7: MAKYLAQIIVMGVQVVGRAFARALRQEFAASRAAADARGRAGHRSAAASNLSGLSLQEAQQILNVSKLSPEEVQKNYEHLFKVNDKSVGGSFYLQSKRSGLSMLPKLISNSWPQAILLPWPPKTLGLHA

Target: hexahistidine tagged Magmas-2 (human) (UniProt I3L1U7)
Assay: pull-down; hexahistidine tagged Magmas variants on Ni-NTA beads; lysate of 2 mg HEK293T mitochondria in 25 mM HEPES-KOH pH 7.5, 80 mM KCl, 5 mM EDTA, 20 mM imidazole, 10% glycerol, 1 mM PMSF, 0.5% NP-40; 12 h, 4 °C; washes with 0.25% NP-40; immunoblot; only the target purified

B1: Tim23 (human) (protein, UniProt O14925 1-209)
chain: MEGGGGSGNKTTGGLAGFFGAGGAGYSHADLAGVPLTGMNPLSPYLNVDPRYLVQDTDEFILPTGANKTRGRFELAFFTIGGCCMTGAAFGAMNGLRLGLKETQNMAWSKPRNVQILNMVTRQGALWANTLGSLALLYSAFGVIIEKTRGAEDDLNTVAAGTMTGMLYKCTGGLRGIARGGLTGLTLTSLYALYNNWEHMKGSLLQQSL
  binding: binds
